The target in assay [1] is H-Rrm4-NT4 (Ustilago maydis). The experiment in a line: SAXS; 0.6 mg/ml protein, 10°C, buffer E (20 mM HEPES pH 8.0, 200 mM NaCl, 1 mM β-ME); both purified.
The next assay addresses G-Rrm4 (Ustilago maydis). The description is as above.
In assay [2] the target is Upa1-Gfp (Gal4 DNA-binding domain fusion) (Ustilago maydis). Kind of assay: two-hybrid; Matchmaker 3, S. cerevisiae AH109; Upa1 versions fused to the Gal4p DNA-binding domain, Rrm4 versions to the activation domain; growth on SD without leucine, tryptophan, histidine and adenine, 28°C, 2 days.

Amino acid sequences for entries named in this document (tags omitted). A change or cut given only in a name is not applied to a line headed by its entry.
UniProt A0A0D1DWZ5: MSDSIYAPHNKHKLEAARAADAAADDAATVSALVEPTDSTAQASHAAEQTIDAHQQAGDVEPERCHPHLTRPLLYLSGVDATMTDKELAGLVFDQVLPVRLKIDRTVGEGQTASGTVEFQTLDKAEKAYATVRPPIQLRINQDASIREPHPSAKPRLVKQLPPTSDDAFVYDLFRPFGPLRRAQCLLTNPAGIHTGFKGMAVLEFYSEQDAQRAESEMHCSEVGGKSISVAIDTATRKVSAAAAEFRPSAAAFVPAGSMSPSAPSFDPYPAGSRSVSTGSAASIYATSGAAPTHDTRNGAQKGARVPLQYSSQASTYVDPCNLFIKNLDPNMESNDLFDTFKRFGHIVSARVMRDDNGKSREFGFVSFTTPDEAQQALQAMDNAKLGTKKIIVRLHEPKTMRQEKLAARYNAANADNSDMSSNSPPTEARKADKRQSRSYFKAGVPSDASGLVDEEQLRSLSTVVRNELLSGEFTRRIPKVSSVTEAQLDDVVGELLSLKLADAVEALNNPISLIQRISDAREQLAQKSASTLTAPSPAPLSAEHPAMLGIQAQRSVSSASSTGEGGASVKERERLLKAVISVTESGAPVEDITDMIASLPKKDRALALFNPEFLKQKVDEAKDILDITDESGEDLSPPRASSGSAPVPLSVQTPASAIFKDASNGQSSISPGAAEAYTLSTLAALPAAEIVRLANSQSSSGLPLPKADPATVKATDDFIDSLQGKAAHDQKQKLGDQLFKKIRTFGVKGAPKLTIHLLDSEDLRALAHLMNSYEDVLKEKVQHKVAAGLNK

These are yes or no findings as the source states them, for the method shown. Some binding calls cover weakened binding; strength is not graded here.

For the substance “H-Rrm4-NT4 (from UniProt A0A0D1DWZ5 421-792) (domain or fragment)”, the binding entry in assay [1] is reported as “no binding (tested: 0.6 mg/ml)”.

With G-Rrm4 (from UniProt A0A0D1DWZ5 1-792), the binding entry with G-Rrm4 (Ustilago maydis) is on record as “no binding (tested: 0.6 mg/ml)”.

In the case of “Rrm4-Kat (Gal4 activation domain fusion) (from UniProt A0A0D1DWZ5 1-792)”, the binding result in assay [2] is “binds”.

Source of the values: article PMC9249222.
